The record followed here is the supplement of paper PMC5407854, “Inhibitor of ppGalNAc-T3-mediated O-glycosylation blocks cancer cell invasiveness and lowers FGF23 levels” (eLife, 2017).

This is one part of the list. Most values lie at the level of the controls, where differences are scatter.

The test relates to ppGalNAc-T3 sensor. Kind of test: T3 sensor activation Q score (MG/GFP ratio z-score vs DMSO controls) (SD units); higher = more sensor activation (inhibition of ppGalNAc-T3 glycosylation). As to conditions: HEK293 sensor cells; 10 µM; 6 h. The procedure: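 Cells were treated with compound at 10 uM for 6 h, then MG/GFP ratio was read by flow cytometry (10,000 cells per well, duplicate wells). Q = (R - R_neg)/SD_neg relative to DMSO vehicle controls; the signal rises when the glycosyltransferase is inhibited.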
For `O=[N+]([O-])c1ccc(N2CCN(Cc3cc(F)ccc3F)CC2)cc1`, the “T3 sensor activation Q score” value was determined as 0.71.

With `Cc1cccc(N2CCN(Cc3cccc(F)c3)CC2)c1C`, the “T3 sensor activation Q score” value worked out at 0.65.

`CCOc1ccccc1N1CCN(Cc2ccc(OC)cc2)CC1`: the “T3 sensor activation Q score” value is 0.11.

On to `CCOc1ccccc1N1CCN(Cc2ccc(F)c(F)c2)CC1`, for which the “T3 sensor activation Q score” value was -0.055.

In the case of `COc1cc(CN2CCN(Cc3ccccc3)CC2)cc(OC)c1`, the “T3 sensor activation Q score” value was 0.13.

In the case of `O=C(CN1CCCCC1)c1ccccc1`, the “T3 sensor activation Q score” value stood at 0.315.

`C=CCOc1ccccc1CN1CCN(c2ccccc2F)CC1`: the “T3 sensor activation Q score” value turned out to be 0.355.

Consider `Cc1ccccc1N1CCN(Cc2ccc([N+](=O)[O-])cc2)CC1`, for which the “T3 sensor activation Q score” value came to 0.065.

For the compound `COc1cccc(CN2CCN(c3ccc(F)cc3)CC2)c1`, the “T3 sensor activation Q score” value was -0.215.

In the case of `COc1cc(OC)c(CN2CCN(c3ccccc3)CC2)cc1Br`, the “T3 sensor activation Q score” value came out at 0.74.

Take `COc1ccc(CN2CCN(c3ccccc3C)CC2)c(OC)c1`: the “T3 sensor activation Q score” value was determined as 0.935.
